According to paper PMC12299885:
Results are given in words; binding and its absence hold for the method and conditions named. In cells and extracts the contact can be indirect.

Sequences of proteins named here, by UniProt entry; tags and fusion partners are left off. Residues count along the entry.
UniProt Q60841, residues 27-3461: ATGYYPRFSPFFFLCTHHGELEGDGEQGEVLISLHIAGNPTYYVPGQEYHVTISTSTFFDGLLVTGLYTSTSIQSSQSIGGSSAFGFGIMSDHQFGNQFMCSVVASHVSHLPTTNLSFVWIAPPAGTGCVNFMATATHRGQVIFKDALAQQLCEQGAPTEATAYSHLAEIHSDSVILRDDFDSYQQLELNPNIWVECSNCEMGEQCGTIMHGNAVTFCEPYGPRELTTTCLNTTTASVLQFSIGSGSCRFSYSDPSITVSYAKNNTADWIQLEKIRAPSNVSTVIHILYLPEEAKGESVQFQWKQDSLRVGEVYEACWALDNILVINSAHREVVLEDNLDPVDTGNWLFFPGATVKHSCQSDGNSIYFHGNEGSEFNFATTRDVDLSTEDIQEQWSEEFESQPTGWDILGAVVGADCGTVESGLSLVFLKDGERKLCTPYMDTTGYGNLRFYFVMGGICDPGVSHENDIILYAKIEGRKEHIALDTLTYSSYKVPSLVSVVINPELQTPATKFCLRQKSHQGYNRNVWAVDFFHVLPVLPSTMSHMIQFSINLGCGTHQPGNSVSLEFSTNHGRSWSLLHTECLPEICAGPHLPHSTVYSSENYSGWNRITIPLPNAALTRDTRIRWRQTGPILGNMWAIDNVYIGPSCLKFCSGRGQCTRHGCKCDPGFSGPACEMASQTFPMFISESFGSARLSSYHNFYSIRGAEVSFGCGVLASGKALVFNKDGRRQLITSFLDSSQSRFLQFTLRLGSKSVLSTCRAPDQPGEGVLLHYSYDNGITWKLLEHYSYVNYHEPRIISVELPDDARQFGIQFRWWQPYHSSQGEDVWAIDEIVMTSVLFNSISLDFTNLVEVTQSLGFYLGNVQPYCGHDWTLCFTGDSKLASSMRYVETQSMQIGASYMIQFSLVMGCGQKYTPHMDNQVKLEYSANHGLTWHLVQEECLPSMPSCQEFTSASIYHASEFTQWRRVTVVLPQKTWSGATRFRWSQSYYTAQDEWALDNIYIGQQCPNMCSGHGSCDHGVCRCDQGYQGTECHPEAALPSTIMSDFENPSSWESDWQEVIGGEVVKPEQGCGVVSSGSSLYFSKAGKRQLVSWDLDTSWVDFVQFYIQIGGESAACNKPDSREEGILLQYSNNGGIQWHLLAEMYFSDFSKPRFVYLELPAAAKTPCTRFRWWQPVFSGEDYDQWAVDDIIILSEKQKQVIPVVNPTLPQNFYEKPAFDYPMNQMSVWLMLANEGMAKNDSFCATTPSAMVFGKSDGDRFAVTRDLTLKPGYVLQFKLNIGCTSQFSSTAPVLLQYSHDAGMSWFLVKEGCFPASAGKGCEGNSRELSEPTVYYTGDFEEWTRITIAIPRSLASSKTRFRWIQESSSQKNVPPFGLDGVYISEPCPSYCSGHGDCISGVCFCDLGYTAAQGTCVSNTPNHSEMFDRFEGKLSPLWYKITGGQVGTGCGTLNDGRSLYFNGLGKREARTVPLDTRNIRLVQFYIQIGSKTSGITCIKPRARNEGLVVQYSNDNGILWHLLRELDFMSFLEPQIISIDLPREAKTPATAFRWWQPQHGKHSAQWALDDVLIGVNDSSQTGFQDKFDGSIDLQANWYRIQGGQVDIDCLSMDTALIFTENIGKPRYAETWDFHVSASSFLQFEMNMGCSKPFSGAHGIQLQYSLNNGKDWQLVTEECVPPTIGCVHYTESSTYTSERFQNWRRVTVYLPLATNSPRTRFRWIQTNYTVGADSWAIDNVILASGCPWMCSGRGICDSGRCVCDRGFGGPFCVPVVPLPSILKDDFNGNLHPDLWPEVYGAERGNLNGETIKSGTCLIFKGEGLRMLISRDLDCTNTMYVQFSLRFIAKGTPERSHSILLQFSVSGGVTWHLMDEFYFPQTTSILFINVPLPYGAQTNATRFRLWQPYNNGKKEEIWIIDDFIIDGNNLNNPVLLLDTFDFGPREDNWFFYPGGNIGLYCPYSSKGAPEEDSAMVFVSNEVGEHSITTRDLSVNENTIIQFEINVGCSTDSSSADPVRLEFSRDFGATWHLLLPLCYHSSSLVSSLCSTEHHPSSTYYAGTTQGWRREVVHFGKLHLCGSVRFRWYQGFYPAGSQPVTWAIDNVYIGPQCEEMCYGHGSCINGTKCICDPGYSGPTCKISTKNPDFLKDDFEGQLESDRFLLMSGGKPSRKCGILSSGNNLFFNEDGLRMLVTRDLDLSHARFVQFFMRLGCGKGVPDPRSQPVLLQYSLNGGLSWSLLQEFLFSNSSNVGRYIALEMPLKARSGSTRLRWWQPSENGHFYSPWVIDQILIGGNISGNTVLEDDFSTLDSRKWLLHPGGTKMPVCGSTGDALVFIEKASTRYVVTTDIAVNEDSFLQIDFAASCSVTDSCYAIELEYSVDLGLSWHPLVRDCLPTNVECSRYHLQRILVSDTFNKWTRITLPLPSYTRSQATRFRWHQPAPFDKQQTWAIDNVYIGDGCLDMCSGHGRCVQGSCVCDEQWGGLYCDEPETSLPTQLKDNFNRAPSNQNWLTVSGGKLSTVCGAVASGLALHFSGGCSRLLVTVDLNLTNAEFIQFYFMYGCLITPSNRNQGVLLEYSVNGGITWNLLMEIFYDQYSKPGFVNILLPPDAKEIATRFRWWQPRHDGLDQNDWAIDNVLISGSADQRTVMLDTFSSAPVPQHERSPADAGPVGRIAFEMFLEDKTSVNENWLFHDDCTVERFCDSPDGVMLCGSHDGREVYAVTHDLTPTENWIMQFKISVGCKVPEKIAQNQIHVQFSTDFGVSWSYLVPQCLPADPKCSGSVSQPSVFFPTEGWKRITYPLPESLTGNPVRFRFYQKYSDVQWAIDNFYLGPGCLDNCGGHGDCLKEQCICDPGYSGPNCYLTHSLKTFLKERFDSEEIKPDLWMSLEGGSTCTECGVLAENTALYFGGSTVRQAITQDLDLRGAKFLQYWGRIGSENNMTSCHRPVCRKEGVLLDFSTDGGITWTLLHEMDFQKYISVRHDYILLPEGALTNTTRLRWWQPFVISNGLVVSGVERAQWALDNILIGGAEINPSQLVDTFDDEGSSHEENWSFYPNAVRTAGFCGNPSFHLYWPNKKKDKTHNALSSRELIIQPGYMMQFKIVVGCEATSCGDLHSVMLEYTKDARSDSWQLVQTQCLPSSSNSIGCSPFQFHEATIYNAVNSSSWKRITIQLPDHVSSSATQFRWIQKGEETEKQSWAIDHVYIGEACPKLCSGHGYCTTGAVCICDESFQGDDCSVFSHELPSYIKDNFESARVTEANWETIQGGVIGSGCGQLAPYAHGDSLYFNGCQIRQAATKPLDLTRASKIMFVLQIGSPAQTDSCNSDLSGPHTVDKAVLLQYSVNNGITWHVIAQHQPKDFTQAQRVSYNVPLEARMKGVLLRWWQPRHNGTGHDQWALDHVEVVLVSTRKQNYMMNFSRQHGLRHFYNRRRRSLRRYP
UniProt Q924X6, residues 29-996: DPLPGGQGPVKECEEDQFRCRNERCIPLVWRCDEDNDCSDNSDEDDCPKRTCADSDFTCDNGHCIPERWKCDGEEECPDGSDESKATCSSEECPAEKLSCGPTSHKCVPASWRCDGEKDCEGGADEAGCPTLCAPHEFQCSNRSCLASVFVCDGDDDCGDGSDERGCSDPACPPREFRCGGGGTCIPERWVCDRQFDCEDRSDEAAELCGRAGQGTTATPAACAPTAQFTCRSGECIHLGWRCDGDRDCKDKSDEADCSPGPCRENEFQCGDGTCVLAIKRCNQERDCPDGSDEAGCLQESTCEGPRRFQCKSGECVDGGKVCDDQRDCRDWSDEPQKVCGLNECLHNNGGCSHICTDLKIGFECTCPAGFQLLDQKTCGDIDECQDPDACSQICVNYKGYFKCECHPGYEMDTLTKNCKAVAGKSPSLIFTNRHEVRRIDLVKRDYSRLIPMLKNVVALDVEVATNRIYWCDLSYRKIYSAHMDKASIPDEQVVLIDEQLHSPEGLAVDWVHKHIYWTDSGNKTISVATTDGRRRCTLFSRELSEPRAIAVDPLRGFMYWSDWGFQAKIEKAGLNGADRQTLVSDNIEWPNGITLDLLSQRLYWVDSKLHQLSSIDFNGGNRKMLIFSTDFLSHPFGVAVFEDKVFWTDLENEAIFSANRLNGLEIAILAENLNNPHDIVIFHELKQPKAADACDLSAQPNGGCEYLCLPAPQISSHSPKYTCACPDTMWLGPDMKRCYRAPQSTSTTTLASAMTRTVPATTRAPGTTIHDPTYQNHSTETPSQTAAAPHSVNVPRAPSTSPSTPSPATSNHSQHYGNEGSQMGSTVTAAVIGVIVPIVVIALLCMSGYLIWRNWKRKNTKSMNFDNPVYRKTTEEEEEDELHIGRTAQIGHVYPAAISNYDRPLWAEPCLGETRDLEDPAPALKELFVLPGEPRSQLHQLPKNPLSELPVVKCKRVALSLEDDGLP

Tests used:
[1] = target: Reelin (mouse (endogenous in P4 Prnp+/+ mouse brain)) (UniProt Q60841); assay: co-IP
[2] = target: apolipoprotein E receptor 2 (ApoER2) (mouse (endogenous in P4 Prnp+/+ mouse brain)) (UniProt Q924X6); assay: co-IP
[3] = target: apolipoprotein E receptor 2 (ApoER2) (mouse (endogenous in P4 Prnp+/+ mouse brain)) (UniProt Q924X6); assay: cross-linking + co-IP
[4] = target: cellular prion protein (PrP^C) (mouse (endogenous in P4 Prnp+/+ mouse brain)) (UniProt P04925); assay: co-IP

In the case of “cellular prion protein (PrP^C) (from UniProt P04925 23-230)”, the binding [1] is reported as “no binding”, the binding [2] is reported as “no binding” and the binding [3] is reported as “no binding”.
With “Reelin (from UniProt Q60841 27-3461) (ligand)” the binding [4] was “no binding”.
For “apolipoprotein E receptor 2 (ApoER2) (from UniProt Q924X6 29-996)”, the binding [4] was “no binding”.
